According to US20180282690A1, “METHOD AND CULTURE MEDIUM FOR EX VIVO CULTURING OF EPIDERMIS-DERIVED STEM CELLS” (Max-Planck-Gesellschaft zur Förderung der Wissenchaften e.V., priority 2015, published 2018):
Structures can show the parent of a compound that is named as a salt. At least one structure is not confirmed: it was looked up by name or label, or the drawing left a doubt.

Test system: CD34^+α6^+ HFSCs
Test: 3D-ECM culture of mouse keratinocytes, CD34+α6+ HFSCs quantified by flow cytometry
Assay type: cell-based
Conditions: 3C conditions 14 days with dorsomorphin 2 μM, vs untreated 3C
Procedure: Keratinocytes were isolated from back skin of mice by incubating skin pieces in 0.8% Trypsin (Gibco) for 50 min at 37° C. After separating the epidermis from the underlying dermis, cells were homogenized, filtered through 70 μm and 45 μm cell strainers (BD Biosciences) and pelleted at 900 rpm for 3 min. For 2D culture of epidermis-derived cells, tissue culture petri dished were coated with a mixture of collagen I (30 μg/ml)+fibronectin (10 μg/ml; both from Millipore) in MEM for 1 h at 37° C. prior to plating of cells. Epidermis-derived cells were suspended in KGM or in FAD medium, and seeded on the coated plastic dishes. Medium was exchanged the next day after initial seeding and thereafter every second day. […] For 3D culture of HFSCs, 8×10^4 cells were resuspended in 40 μl ice-cold 1:1 KGM:Matrigel mixture that was dispensed as a droplet in 24-well cell culture dishes. […]
Single cell suspensions prepared from murine back skin (described above) or from cultured cells were rinsed once with KGM and stained with fluorescently labeled antibodies for 30 min on ice. After two washes with FACS Buffer (2% FCS, 2 mM EDTA, PBS) cells were measured in a BD FACS Canto II and data was analyzed using FlowJo software version 10. […] Expression of cell surface markers was analyzed on live cells after exclusion of cell doublets and dead cells, respectively.

SMILES: c1cc(-c2cnn3cc(-c4ccc(OCCN5CCCCC5)cc4)cnc23)ccn1 [dorsomorphin, 6-[4-(2-piperidin-1-ylethoxy)phenyl]-3-pyridin-4-ylpyrazolo[1,5-a]pyrimidine; dihydrochloride, reference compound]
- percentage of CD34+α6+ HFSCs: decrease
